Reference: patent US20190051326A1, “Ionic Liquid, Lubricant, and Magnetic Recording Medium” (priority 2016, published 2019)

Test: Tape durability test (friction coefficient, still durability, shuttle durability)
Conditions: for Still durability after heating/min / Friction coefficient after 100 runs after heating / Shuttle durability after heating/times: after heating test 10 minutes at 100° C.
[1] = −5° C., decay time of output by −3 dB in paused state
[2] = −5° C., shuttles until output reduced by 3 dB

Compound | Still durability/min (40° C., 30% RH) [min] | Still durability after heating/min (40° C., 30% RH) [min] | Friction coefficient after 100 runs (40° C., 90% RH) | Shuttle durability/times (40° C., 90% RH) [times] | Friction coefficient after 100 runs after heating (40° C., 90% RH) | Shuttle durability after heating/times (40° C., 90% RH) [times] | magnetic tape durability after the heating test (in words) (after heating test) | Friction coefficient after 100 runs (−5° C.) | Friction coefficient after 100 runs after heating (−5° C.) | Shuttle durability after heating/times (−5° C.) [times] | Still durability after heating/min (−5° C.) [min] | Still durability/min [1] [min] | Shuttle durability/times [2] [times]
pentadecafluorooctanoic acid octadecylammonium [Comparative Example 5A] | >60 | 16 | 0.25 | >200 | 0.51 | 23 | considerably deteriorated in the magnetic tape durability after the heating test | 0.21 | 0.45 | 30 | 12 | >60 | >200
nonafluorobutanesulfonic acid-1-octadecyl-2-heptadecylimidazolium [Comparative Example 6A] | >60 | >60 | 0.22 | >200 | 0.23 | >200 |  | 0.20 | 0.21 | >200 | >60 | >60 | >200
CCCCCCCCCCCCCCCCCC[n+]1ccn(CCCC)c1.O=S1(=O)[N-]S(=O)(=O)C(F)(F)C(F)(F)C1(F)F [Comparative Example 2A, hexafluorocyclopropane-1,3-bis(sulfonyl)imide-1-butyl-3-n-octadecylimidazolium] | >60 | >60 | 0.25 | >200 | 0.27 | >200 |  | 0.23 | 0.25 | >200 | >60 | >60 | >200
CCCCCCCCCCCCCCCCCC[N+]1(CCCO)CCCC1.O=S(=O)([N-]S(=O)(=O)C(F)(F)C(F)(F)C(F)(F)C(F)(F)F)C(F)(F)C(F)(F)C(F)(F)C(F)(F)F [Example 3A, bis(nonafluorobutanesulfonyl)imide-N-3′hydroxypropyl-N-octadecylpyrrolidinium] | >60 | >60 | 0.26 | >200 | 0.28 | >200 |  | 0.22 | 0.25 | >200 | >60 | >60 | >200
nonafluorobutanesulfonic acid-1-octadecylimidazolium [Comparative Example 1A] | >60 | >60 | 0.22 | >200 | 0.23 | >200 |  | 0.20 | 0.20 | >200 | >60 | >60 | >200
CCCCCCCCCCCCCCCCCC[n+]1ccn(CCCO)c1.O=S(=O)([N-]S(=O)(=O)C(F)(F)C(F)(F)C(F)(F)C(F)(F)F)C(F)(F)C(F)(F)C(F)(F)C(F)(F)F [Example 2A, bis(nonafluorobutanesulfonyl)imide1-3′hydroxypropyl-3-octadecylimidazolium] | >60 | >60 | 0.25 | >200 | 0.26 | >200 |  | 0.22 | 0.23 | >200 | >60 | >60 | >200
CCCCCCCCCCCCCCCCCC[N+](C)(C)CCCO.O=S(=O)([N-]S(=O)(=O)C(F)(F)C(F)(F)C(F)(F)C(F)(F)F)C(F)(F)C(F)(F)C(F)(F)C(F)(F)F [Example 10A, bis(nonafluorobutanesulfonyl)imide-N-3′hydroxypropyl-N,N-dimethyloctadecylammonium] | >60 | >60 | 0.21 | >200 | 0.21 | >200 |  | 0.19 | 0.20 | >200 | >60 | >60 | >200
heptadecafluorooctanesulfonic acid-6-octadecyl-1,8-diazabicyclo[5.4.0]-7-undecenium [Comparative Example 3A] | >60 | >60 | 0.26 | >200 | 0.26 | >200 |  | 0.22 | 0.24 | >200 | >60 | >60 | >200
CCCCCCCCCCCCCC[N+](C)(C)CCCO.O=S(=O)([N-]S(=O)(=O)C(F)(F)C(F)(F)C(F)(F)C(F)(F)F)C(F)(F)C(F)(F)C(F)(F)C(F)(F)F [Example 9A, bis(nonafluorobutanesulfonyl)imide-N-3′hydroxypropyl-N,N-dimethyltetradecylammonium] | >60 | >60 | 0.25 | >200 | 0.26 | >200 |  | 0.24 | 0.24 | >200 | >60 | >60 | >200
CCCCCCCCCCCCCCCCCCC1CCCCN2CCC[N+](CCCO)=C12.O=S(=O)([N-]S(=O)(=O)C(F)(F)C(F)(F)C(F)(F)C(F)(F)F)C(F)(F)C(F)(F)C(F)(F)C(F)(F)F (stereo not shown) [Example 5A, bis(nonafluorobutanesulfonyl)imide-6-octadecyl-8-3′-hydroxypropyl-1,8-diazabicyclo[5.4 0.0]-7-undecenium] | >60 | >60 | 0.26 | >200 | 0.27 | >200 |  | 0.24 | 0.25 | >200 | >60 | >60 | >200
CCCCCCCCCCCCCCCCCCC1CCCCN2CCCN=C12.O=S1(=O)NS(=O)(=O)C(F)(F)C(F)(F)C1(F)F (stereo not shown) [Comparative Example 4A, hexafluorocyclopropane-1,3-bis(sulfonyl)imide-6-octadecyl-1,8-diazabicyclo[5.4.0]-7-undecenium] | >60 | >60 | 0.26 | >200 | 0.27 | >200 |  | 0.23 | 0.24 | >200 | >60 | >60 | >200
CCCCCCCCCCCCCCCCCCn1ccnc1CCCCCCCCCCCCCCCCC.O=S1(=O)NS(=O)(=O)C(F)(F)C(F)(F)C1(F)F [Comparative Example 7A, hexafluorocyclopropane-1,3-bis(sulfonyl)imide-1-octadecyl-2-heptadecylimidazolium] | >60 | >60 | 0.22 | >200 | 0.23 | >200 |  | 0.20 | 0.22 | >200 | >60 | >60 | >200
CCCCCCCCCCCCCCCCCCN.O=S(=O)(NS(=O)(=O)C(F)(F)C(F)(F)C(F)(F)C(F)(F)F)C(F)(F)C(F)(F)C(F)(F)C(F)(F)F [Comparative Example 8A, bis(nonafluorobutanesulfonyl)imide-octadecylammonium] | >60 | >60 | 0.20 | >200 | 0.20 | >200 |  | 0.19 | 0.20 | >200 | >60 | >60 | >200
